## Results of single-concentration screens

Chains of the proteins cited; added tags and fusions are not shown.
UniProt P9WPC5, whole entry: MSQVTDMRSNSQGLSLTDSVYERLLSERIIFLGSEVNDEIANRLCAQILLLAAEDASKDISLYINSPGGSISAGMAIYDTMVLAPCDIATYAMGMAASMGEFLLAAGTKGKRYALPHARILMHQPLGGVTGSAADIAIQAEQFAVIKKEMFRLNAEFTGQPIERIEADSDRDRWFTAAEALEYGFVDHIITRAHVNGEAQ
UniProt P9WPC3, whole entry partner: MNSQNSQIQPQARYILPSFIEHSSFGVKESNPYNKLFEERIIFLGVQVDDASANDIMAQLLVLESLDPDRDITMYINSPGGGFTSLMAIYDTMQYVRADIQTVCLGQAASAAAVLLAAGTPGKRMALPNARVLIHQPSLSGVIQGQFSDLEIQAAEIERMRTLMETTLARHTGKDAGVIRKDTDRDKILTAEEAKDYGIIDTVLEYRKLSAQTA

The values are deposited in ChEMBL (CHEMBL3988442, “University of Dundee, Small-Polar-MMV Screening Library” (2021)).

The filed quantity is “Percent Effect” (%).
How 0% and 100% were set is not recorded. Most values in the screen are low, and negative values occur.
This is an unselected part of the compounds tested.

A: 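Assay of Toxoplasma gondii numbers, read through their beta-galactosidase reporter with a colour substrate. Compounds at 10 µM. The record gives no direction; the compounds picked for IC50 retests had high values, so higher reads as fewer parasites. Of about 67,000 compounds tested this way, about 260 (0.38%) reached 50% or more in at least one test.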
B: 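ClpP1P2, Mycobacterium tuberculosis (UniProt P9WPC5 and UniProt P9WPC3). Protease assay of ClpP1P2, read by the AMC dye that it sets free. Tested at 50 µM. Higher reads as stronger inhibition, judged from the few compounds that gave an IC50. Most other retested compounds had strongly negative values. Of about 69,000 compounds tested this way, about 10 (0.015%) reached 50% or more in at least one test.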

O=C(NCCNc1cncc(Br)c1)c1ccc(O)cc1 gave A: -2.055%; B: -3.644%. Result for CCc1ccc(S(=O)(=O)N2CCN(CCn3ccnc3)CC2)cc1 was A: 6.288%; B: -8.536%. For Cc1nn(C)c2cnn(Cc3ccc(C(=O)NC4CC4)cc3)c12 the result was A: 21.03%; B: -14.56%. For Cn1cnc2c1CCN(Cc1ccc(Cl)c3cccnc13)C2 the result was A: -1.285%; B: -1.109%.

CS(=O)(=O)c1ccc(NC(=O)NCc2ccc3c(c2)CCC3)cn1 gave A: 1.128%; B: 6.248%. For N[C@H]1CN(Cc2cnc(N3CCCC3)nc2)C[C@@H]1C1CC1 the result was A: 2.031%; B: -3.791%. CCn1c(Cn2ccnc2)nnc1C1CCN(Cc2ccc(C)o2)CC1 read A: -3.315%; B: -1.732%. For O=C(O)C(F)(F)F.[H][C@@]12CN(Cc3nccs3)CCC[C@]1(C(=O)OCC)CN(S(C)(=O)=O)C2 the result was A: -0.4515%.

With Cc1ccc(-c2nc(CCNC(=O)CCN3CCOC3=O)co2)cc1 the screen gave A: -1.331%; B: -0.08285%. Result for Cc1cc(C)n(CC2CCCN2C(=O)c2cccc3c2OCCO3)n1 (centres unmarked) was A: -12.92%; B: -29.51%. Result for O=C(O)C(F)(F)F.[H][C@]12CCN(S(=O)(=O)c3cccs3)C[C@@]1([H])OCCN(CC)C2 was A: 11.5%. With Cc1cccc2nc(CN3CCC(Cn4ccnn4)CC3)cc(=O)n12 the screen gave A: 8.804%; B: 2.715%.

CC(C)N1CCC2(CCCN(C(=O)c3cncn3C)C2)CC1 read B: -1.255%. Result for Cn1nc(C2CCCN2)c2c(C(=O)NCC(F)(F)F)cc(C3CC3)nc21 (centres unmarked) was A: -16.12%; B: -3.593%. NC(=O)CSc1ccccc1NC(=O)C1CCCC1 read A: -14.73%; B: 25.75%. For COC(=O)c1cc(CN2CCN(c3nc(C)cnc3C)CC2)ccc1O the result was A: -6.087%; B: -9.994%.

Result for CCN(CC)c1ncc(CNC2CCc3nc(C)nn3C2)s1 (centres unmarked) was A: 7.283%; B: 14.29%. Result for CN1CCN(Cc2cn3c(n2)CN(C(=O)N2CCOCC2)CC3)CC1.O=C(O)C(F)(F)F.O=C(O)C(F)(F)F was A: 10.52%. CCN(CC)C(=O)Nc1cc2c(cc1SC)OCCO2 read A: 16.35%; B: -3.42%. With Clc1cccc(OCCCN2CCOC(Cn3cncn3)C2)c1 (centres unmarked) the screen gave A: 18.16%; B: 0.2484%.

For CN(C)CCN(CC1CCCO1)C(=O)Cc1cn2ccccc2n1 (centres unmarked) the result was A: -6.564%; B: 6.372%. With CCO[C@@H]1CO[C@@]2(CCCN(S(=O)(=O)c3cccnc3)C2)C1 the screen gave B: 13.63%. Result for CCc1nc2c(c(N3CCOCC3)n1)CCN(C(=O)c1ccon1)CC2 was A: -25.48%; B: 0.3035%. CC(C)(C)CNC(=O)c1ccc(C(=O)O)nc1 gave A: 11.27%; B: -1.198%.

Result for O=C1NC(c2ccccc2)=N[C@@]12CC[C@@H]1CN(Cc3ccco3)C[C@@H]12 was B: -1.454%. For Cc1nc(N2CCC3(CCCN(C(C)C)C3=O)C2)c2sccc2n1 (centres unmarked) the result was A: 2.854%; B: 6.662%. With O=c1ccc2c(n1Cc1cccnc1)CCC(NCc1cccnc1)C2 (centres unmarked) the screen gave A: 0.5933%; B: -0.3258%. For Cc1nc(CNC(=O)NC2CCN(c3cccc(Cl)c3)C2)no1 (centres unmarked) the result was A: -7.611%; B: -5.632%.

O=C(O)C(F)(F)F.[H][C@@]12CCN(S(=O)(=O)c3ccccc3)C[C@]1([H])[C@@H](CN(C)C)OC2 read A: 2.439%. COC(=O)N1CCC(NC2CCSCC2)C1 (centres unmarked) read A: 8.761%; B: 14.56%. CCc1nc(CN2CC(C(=O)OC)O[C@H](C)C2)cs1 (some centres unmarked) read A: -0.2273%; B: 3.765%. With O=C(O)C(F)(F)F.O=C(O)C(F)(F)F.O=C1COC2(CCN(Cc3ccncc3)CC2)CN1 the screen gave A: -4.602%.

For O=C(CCC1CCCO1)NCCc1ccccn1 (centres unmarked) the result was A: 7.257%; B: -4.438%. Result for Cl.O=C1CC(NCc2cnc(N3CCCC3)nc2)CN1c1ccccc1 (centres unmarked) was A: 3.324%. For COc1ccccc1Cc1cc(O)nc(NC(C)CN(C)C)n1 (centres unmarked) the result was A: -6.155%; B: -33.44%. Result for COc1cc(C(=O)NC(CC(=O)O)c2cccs2)cc(Cl)c1OC (centres unmarked) was A: 3.318%; B: 6.079%.

For CCN(C)S(=O)(=O)c1ccc(Cl)cc1C#N the result was A: -3.463%; B: -0.2058%. CNC(=O)Cn1c(-c2ccco2)nn(-c2ccccc2OC)c1=O read A: -29.51%; B: -13.69%. CCC(C)(C)NC(=O)COC(=O)c1cc(C)ccc1NC(=O)N(C)C gave A: -4.16%; B: -5.509%. With COCCN1CC2(CCCN(C(=O)NCCc3cccs3)C2)CCC1=O (centres unmarked) the screen gave A: 10.18%; B: -2.109%.

For NC(=O)c1cnc(NC2CCN(c3ccccn3)CC2)c(Cl)c1 the result was A: 0.767%; B: 3.893%. Cc1noc([C@H]2C[C@H]3CN(C(=O)C4CCOCC4)CC[C@@H]3O2)n1 read B: 1.956%. With O=C1COC2(CCN(CC3CC3)CC2)CN1c1ccccc1 the screen gave B: 8.814%. For FC(F)(F)c1ccc2[nH]c([C@H]3CCNC3)nc2c1 the result was A: 17.28%; B: -9.331%.

The first 6 entries again:

* O=C(NCCNc1cncc(Br)c1)c1ccc(O)cc1 | A: -2.055%; B: -3.644%
* CCc1ccc(S(=O)(=O)N2CCN(CCn3ccnc3)CC2)cc1 | A: 6.288%; B: -8.536%
* Cc1nn(C)c2cnn(Cc3ccc(C(=O)NC4CC4)cc3)c12 | A: 21.03%; B: -14.56%
* Cn1cnc2c1CCN(Cc1ccc(Cl)c3cccnc13)C2 | A: -1.285%; B: -1.109%
* CS(=O)(=O)c1ccc(NC(=O)NCc2ccc3c(c2)CCC3)cn1 | A: 1.128%; B: 6.248%
* N[C@H]1CN(Cc2cnc(N3CCCC3)nc2)C[C@@H]1C1CC1 | A: 2.031%; B: -3.791%